For five substances, binding results are on record in PMC12088458.

By UniProt entry, the sequences of proteins in these tests, tags left out.
UniProt O00571: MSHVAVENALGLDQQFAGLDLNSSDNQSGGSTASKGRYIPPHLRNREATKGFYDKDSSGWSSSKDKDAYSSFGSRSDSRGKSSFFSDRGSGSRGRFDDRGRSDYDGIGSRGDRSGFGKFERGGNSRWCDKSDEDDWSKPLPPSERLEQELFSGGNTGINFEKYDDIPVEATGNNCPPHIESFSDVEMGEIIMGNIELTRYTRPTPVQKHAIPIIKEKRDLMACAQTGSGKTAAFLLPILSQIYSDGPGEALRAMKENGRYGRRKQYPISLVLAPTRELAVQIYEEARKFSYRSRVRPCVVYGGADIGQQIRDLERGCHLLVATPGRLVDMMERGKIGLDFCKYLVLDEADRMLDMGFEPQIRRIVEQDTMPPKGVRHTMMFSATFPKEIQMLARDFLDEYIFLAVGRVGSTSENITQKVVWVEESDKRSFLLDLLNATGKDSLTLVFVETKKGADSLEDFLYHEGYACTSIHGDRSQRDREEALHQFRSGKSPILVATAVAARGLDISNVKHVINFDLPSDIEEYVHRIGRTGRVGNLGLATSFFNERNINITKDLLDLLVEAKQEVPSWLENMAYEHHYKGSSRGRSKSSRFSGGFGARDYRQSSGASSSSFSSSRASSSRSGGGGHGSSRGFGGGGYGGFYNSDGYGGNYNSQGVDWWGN
UniProt O60264: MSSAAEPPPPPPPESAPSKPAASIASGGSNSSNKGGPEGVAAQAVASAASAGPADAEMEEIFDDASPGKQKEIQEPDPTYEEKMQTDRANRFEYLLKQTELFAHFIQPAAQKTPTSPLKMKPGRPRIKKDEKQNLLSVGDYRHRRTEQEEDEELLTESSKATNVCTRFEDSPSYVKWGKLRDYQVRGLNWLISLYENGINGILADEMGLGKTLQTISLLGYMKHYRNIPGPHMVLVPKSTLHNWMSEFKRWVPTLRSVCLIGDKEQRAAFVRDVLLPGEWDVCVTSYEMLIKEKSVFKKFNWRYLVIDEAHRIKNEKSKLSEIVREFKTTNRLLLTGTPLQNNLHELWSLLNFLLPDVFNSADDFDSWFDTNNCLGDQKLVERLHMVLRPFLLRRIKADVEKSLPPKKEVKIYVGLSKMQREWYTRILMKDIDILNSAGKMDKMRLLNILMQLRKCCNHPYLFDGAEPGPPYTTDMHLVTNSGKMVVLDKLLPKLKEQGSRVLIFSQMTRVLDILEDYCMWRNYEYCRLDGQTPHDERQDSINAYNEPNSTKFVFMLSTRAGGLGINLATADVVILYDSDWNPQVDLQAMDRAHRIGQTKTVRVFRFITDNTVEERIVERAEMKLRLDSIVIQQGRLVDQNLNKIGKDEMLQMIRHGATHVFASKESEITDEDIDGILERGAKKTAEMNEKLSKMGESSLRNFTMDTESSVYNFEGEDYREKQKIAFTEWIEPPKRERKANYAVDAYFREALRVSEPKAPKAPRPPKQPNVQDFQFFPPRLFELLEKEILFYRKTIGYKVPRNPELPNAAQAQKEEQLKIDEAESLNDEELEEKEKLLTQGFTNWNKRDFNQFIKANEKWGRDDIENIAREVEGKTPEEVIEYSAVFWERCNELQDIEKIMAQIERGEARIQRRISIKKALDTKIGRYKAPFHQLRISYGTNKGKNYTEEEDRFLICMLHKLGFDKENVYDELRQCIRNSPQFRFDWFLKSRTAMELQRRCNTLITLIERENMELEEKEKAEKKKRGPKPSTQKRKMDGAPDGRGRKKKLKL
UniProt Q9Y4A5: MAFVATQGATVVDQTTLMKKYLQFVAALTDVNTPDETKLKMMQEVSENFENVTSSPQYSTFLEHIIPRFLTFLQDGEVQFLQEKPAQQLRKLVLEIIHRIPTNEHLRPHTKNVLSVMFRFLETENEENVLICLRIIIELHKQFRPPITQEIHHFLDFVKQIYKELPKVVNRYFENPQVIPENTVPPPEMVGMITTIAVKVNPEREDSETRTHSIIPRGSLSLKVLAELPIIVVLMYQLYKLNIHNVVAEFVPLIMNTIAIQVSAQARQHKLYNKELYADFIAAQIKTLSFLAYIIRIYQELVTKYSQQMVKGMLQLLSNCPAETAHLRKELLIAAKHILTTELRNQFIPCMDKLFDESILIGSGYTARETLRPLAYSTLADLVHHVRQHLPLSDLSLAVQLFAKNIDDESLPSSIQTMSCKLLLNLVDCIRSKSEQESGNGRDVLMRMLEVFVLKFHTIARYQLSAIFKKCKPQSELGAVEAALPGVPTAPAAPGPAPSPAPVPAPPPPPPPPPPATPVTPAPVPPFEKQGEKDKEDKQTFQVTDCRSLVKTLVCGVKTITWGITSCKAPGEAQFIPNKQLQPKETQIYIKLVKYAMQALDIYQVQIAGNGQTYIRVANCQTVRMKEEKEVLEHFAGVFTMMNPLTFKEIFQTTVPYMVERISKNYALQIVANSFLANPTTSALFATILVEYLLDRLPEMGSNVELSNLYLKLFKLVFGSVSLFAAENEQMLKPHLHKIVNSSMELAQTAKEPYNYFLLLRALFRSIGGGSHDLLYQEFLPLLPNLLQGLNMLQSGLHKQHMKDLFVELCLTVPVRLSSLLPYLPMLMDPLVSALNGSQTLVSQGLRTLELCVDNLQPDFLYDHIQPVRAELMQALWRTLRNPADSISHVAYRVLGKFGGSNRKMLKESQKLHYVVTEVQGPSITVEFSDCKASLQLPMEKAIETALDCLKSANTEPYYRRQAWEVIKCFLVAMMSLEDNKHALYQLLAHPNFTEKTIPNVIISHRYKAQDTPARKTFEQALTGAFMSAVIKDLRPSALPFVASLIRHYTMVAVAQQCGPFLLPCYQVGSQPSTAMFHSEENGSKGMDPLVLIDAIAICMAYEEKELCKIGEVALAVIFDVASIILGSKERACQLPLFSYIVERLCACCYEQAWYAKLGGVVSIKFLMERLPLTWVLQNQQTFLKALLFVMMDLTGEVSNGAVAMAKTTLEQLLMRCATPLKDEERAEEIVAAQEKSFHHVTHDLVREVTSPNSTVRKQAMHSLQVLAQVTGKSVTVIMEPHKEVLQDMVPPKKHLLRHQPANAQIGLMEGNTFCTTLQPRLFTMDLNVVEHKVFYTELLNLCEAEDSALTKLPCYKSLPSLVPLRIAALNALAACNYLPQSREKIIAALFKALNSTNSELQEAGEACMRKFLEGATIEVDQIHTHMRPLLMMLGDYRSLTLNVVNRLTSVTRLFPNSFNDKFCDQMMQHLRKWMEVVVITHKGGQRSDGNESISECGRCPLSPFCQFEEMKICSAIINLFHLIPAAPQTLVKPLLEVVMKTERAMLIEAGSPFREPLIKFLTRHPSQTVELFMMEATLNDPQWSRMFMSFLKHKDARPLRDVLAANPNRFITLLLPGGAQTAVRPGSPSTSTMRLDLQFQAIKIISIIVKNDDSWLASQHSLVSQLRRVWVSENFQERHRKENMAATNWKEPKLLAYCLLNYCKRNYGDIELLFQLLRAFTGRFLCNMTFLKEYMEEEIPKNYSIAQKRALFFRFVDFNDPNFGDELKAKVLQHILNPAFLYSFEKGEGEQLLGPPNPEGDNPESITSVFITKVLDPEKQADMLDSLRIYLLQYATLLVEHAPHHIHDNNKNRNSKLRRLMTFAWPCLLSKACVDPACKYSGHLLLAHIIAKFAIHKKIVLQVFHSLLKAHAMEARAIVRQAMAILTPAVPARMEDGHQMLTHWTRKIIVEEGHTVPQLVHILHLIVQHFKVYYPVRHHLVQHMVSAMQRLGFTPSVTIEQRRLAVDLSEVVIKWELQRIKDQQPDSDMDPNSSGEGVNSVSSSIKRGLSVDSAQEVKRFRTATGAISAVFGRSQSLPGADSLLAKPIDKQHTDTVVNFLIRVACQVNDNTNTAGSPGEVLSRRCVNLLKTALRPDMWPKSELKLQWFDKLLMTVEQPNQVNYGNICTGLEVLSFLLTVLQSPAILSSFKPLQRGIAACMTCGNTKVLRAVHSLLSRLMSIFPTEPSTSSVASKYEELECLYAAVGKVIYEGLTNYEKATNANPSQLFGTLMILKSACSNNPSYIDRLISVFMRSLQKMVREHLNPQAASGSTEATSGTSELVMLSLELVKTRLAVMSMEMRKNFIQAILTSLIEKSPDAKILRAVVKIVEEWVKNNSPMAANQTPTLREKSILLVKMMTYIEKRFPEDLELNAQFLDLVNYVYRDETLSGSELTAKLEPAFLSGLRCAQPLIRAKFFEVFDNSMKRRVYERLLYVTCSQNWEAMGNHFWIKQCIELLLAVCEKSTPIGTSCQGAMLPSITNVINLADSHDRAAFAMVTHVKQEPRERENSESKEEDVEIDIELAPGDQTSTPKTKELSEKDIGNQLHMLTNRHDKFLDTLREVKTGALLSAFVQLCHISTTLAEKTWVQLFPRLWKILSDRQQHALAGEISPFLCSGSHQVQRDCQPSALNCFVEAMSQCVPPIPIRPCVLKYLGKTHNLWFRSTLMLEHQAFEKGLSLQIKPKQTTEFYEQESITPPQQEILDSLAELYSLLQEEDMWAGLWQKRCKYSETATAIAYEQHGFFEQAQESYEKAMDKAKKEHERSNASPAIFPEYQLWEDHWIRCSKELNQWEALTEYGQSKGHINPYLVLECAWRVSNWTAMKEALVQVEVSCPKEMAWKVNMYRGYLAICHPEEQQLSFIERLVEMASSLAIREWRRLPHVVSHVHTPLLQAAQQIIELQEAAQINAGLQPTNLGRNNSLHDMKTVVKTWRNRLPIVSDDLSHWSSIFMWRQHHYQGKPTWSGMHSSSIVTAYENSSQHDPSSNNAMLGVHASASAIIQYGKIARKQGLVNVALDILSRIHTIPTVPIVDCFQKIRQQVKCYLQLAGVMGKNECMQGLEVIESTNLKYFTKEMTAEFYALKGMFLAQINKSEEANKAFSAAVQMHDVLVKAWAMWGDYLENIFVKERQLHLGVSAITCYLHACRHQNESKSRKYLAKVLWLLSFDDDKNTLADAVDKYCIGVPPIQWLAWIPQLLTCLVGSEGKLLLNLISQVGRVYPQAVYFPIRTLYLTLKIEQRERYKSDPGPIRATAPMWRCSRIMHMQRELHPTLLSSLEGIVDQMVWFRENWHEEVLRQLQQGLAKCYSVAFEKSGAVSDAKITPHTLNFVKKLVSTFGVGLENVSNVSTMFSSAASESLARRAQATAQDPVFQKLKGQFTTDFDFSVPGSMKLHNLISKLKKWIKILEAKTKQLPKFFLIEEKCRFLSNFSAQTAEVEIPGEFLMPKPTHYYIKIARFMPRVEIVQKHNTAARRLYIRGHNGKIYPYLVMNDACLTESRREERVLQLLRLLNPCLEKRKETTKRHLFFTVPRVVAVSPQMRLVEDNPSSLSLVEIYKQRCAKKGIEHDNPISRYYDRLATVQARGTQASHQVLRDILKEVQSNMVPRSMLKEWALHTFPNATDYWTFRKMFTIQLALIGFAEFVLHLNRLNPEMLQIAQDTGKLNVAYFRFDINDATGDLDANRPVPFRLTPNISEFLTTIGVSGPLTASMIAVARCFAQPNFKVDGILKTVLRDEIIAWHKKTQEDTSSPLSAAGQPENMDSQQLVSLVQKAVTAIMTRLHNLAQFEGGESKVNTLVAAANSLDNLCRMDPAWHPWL
UniProt P35222: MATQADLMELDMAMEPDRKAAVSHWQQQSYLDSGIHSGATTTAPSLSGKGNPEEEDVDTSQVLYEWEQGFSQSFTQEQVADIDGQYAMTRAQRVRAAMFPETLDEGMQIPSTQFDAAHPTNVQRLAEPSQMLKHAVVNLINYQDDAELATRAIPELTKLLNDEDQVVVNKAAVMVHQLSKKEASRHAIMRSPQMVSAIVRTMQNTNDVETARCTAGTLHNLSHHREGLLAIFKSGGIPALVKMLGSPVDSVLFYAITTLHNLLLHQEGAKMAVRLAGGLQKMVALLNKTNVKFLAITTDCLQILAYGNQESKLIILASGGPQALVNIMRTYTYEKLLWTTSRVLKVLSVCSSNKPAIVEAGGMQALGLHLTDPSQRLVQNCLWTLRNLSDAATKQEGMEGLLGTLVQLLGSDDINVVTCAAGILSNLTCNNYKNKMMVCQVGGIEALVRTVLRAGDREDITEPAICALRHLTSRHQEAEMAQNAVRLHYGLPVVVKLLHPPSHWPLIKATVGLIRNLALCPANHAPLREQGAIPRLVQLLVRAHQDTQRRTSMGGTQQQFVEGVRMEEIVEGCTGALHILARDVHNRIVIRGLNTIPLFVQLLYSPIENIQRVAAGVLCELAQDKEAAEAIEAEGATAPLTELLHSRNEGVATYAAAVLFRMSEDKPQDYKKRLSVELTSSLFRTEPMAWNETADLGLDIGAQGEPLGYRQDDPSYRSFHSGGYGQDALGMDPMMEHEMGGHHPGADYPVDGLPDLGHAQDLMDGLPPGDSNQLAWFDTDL

One assay concerns the target TBX3-∆NPF-BirA (UniProt O15119). Kind of assay: proximity labelling; BioID: TBX3 (wild type or deletion mutant) fused to BirA expressed in HEK293T cells cultured in 10 µM CHIR99021 (WNT-ON; also done in 10 nM LGK974, WNT-OFF); biotinylated nuclear extracts, streptavidin pulldown, mass spectrometry; against EV-BirA control; SAINT score > 0.6, BFDR < 0.05; n = 3.
For assay [1], the target named is T1, TBX3-WT-BirA (UniProt O15119).
T1 sequence: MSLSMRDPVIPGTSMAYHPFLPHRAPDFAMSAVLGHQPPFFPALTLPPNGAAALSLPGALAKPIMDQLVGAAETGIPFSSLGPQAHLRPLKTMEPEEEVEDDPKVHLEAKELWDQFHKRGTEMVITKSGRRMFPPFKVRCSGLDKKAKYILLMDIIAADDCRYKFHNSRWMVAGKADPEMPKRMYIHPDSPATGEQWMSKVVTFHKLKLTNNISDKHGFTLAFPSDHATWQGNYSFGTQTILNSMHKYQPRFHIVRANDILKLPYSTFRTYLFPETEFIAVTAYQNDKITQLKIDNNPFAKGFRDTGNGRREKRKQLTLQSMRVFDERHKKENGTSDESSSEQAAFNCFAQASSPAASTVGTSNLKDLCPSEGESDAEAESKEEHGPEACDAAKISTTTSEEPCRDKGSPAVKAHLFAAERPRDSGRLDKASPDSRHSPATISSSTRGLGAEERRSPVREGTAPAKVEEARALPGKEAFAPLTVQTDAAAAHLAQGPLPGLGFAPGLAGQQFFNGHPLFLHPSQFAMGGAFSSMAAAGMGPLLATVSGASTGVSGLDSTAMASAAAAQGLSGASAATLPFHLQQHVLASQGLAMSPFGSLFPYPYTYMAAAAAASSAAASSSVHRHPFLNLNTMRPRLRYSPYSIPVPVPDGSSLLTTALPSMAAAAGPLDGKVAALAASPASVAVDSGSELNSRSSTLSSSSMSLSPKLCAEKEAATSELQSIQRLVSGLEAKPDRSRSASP
The description is as above.

Another assay deals with TBX3-∆RRM-BirA (UniProt O15119). The assay is described as above.
The target of assay [2] is T1, TBX3-WT-BirA. As to the kind of experiment: proximity labelling; BioID as a1, cells cultured in 10 nM LGK974 (WNT-OFF, endogenous WNT secretion inhibited); biotinylated nuclear extracts, streptavidin pulldown, mass spectrometry; against EV-BirA control; n = 3.

These are yes or no findings as the source states them, for the method shown. Binding seen in cells or lysates may run through a third protein. Here binding means that the protein was enriched with, or labelled near, the bait; the list need not be complete. For some assays here: No binding means not detected with the bait.

In the case of DDX3X (from UniProt O00571 1-662), the figures for the binding result in the assay with TBX3-∆NPF-BirA, with TBX3-WT-BirA [1] and with TBX3-∆RRM-BirA were “no binding”, “binds” and “no binding”, respectively.

In the case of SMARCA4 (from UniProt P51532 1-1647), the binding result with TBX3-∆NPF-BirA, with TBX3-WT-BirA [1] and in the assay with TBX3-∆RRM-BirA was “binds” throughout.

For the substance SMARCA5 (from UniProt O60264 1-1052), in the assay with TBX3-WT-BirA [1], the binding result is listed as “binds”.

For the substance TRRAP (from UniProt Q9Y4A5 1-3859), the results for the binding entry with TBX3-∆NPF-BirA, with TBX3-WT-BirA [1] and with TBX3-∆RRM-BirA were “no binding”, “binds” and “no binding”, respectively.

As to β-catenin (from UniProt P35222 1-781), the binding entry with TBX3-∆NPF-BirA is listed as “no binding”; in the assay with TBX3-WT-BirA [1] it was “binds”; with TBX3-∆RRM-BirA, “no binding”; with TBX3-WT-BirA [2], “no binding (only WNT-OFF (10 nM LGK974))”.
